# Measured values published in patent publication US20260209365A1, “ANTI-COMMON GAMMA CHAIN PROTEINS AND COMPOSITIONS OF MATTER” (SINOMAB BIOSCIENCE LIMITED, priority 2023, published 2026).
# Results are given in words; binding and its absence hold for the method and conditions named. Binding can be weak; no strength is given.
# Experiments:
# [1] = target: common marmoset γc protein (extracellular domain), purified (common marmoset (Callithrix jacchus)); test: ELISA, plate coated with 1 µg/ml γc protein
# [2] = target: common marmoset γc protein (extracellular domain), purified (common marmoset (Callithrix jacchus)); test: BLI (Octet), antibody captured on anti-human IgG biosensor, γc protein in solution
# [3] = target: common marmoset γc protein (extracellular domain), purified (common marmoset (Callithrix jacchus)); test: BLI (Octet RED96), antibody 20 µg/mL captured on anti-human IgG biosensors, common marmoset γc as analyte
binding [1],binding [2],binding [3],Binder
binds,binds,binds,"hSM-05A, humanized anti-γc antibody with back-mutation (antibody, V domains shown) VH: QVQLVQSGAEVLKPGASVKVSCKASGYTFTEYTMHWVKQARGQRLEWIGGIDPYNGGATYNQRFKGKATLTTDTSTSTAYMELRNLRSDDTAVYYCARRRLYYGNALDYWGQGTLVTVSS VL: DIVMTQSPLSLPVTPGEQASISCRSSQSLVHSNGNTYLHWYLQKPGQSPQLLIYKVSSRFSGVPDRFSGSGSGTDFTLKISRVEAEDVGVYFCSQTTHVPFTFGSGTKLEIKR"
binds,binds,binds,"hSM-05E, humanized anti-γc antibody with back-mutation (antibody, V domains shown) VH: QVQLVQSGAEVLKPGASVKVSCKASGYTFTEYTMHWVKQARGQRLEWIGGIDPNTGGVTYNQKFKGKATLTTDTSTSTAYMELRNLRSDDTAVYYCARRRRYYGYALDYWGQGTLVTVSS VL: DIVMTQSPLSLPVTPGEQASISCRSSQSIVHSNGNTYLEWYLQKPGQSPQLLIYKVSNRFSGVPDRFSGSGSGTDFTLKISRVEAEDVGVYFCSQSTHVPFMFGSGTKLEIKR"
